Source: US20260027116A1, “Methods of Treating Chronic Graft-Versus-Host Disease Following Allogeneic Hematopoietic Stem Cell Transplantation” (Kadmon Corporation, LLC, priority 2022, published 2026)
The source gives many values for each of these; only a part stands here.

Tests used:
Assay type in all cases: in vivo, human
[1] = test system: cGVHD symptom burden; assay: Example 1: Lee Symptom Scale (LSS) score; settings: Cohort 3: 400 mg QD
Experimental: Lee Symptom Scale (LSS) summary score measures the effect on patients' functioning and well-being. The Lee Symptom Scale is a 30-item scale developed to measure the symptoms of cGVHD and is described in Lec S J, Cook E F, Soiffer R, Antin J H. Development and validation of a scale to measure symptoms of chronic graft-versushost disease. Biol Blood Marrow Transplant 2002; 8:444-452.
All responses were assessed by the investigators.
Change From Baseline in Overall Score on Lee cGvHD Symptom Scale at Specified Time Points. Lee cGVHD symptom scale, a patient-reported symptom scale used to measure symptom burden and has 7 subscales (Skin, Eyes and Mouth, Breathing, Eating and Digestion, Muscles and Joints, Energy, and Mental and Emotional) with ratings as follows: 0—Not at all, 1—Slightly, 2—Moderately, 3—Quite a bit, 4—Extremely, with lower values representing better outcome. Score for each subscale was normalized to a score ranged from 0 to 100, where higher score=worse symptoms. An overall score was calculated as average of these 7 subscales. EOT visit was performed within 3 days after the participant's last dose of study drug. Baseline value was defined as valid and last non-missing value obtained within 28 days prior to participant receiving first study medication. […] Analysis was performed on mITT population. Here, ‘number analyzed’=participants with available data for each specified category. Here, ‘0’ in the number analyzed field signifies that none of the participants were available for the analysis at the specified time points.

[2] = test system: lung function; assay: Example 1: percent predicted HGB corrected DLco change from baseline; settings: mean (SD)
From the text: Change From Baseline in Percent Predicted Hemoglobin (HGB) Corrected Diffusing Capacity of Lung for Carbon Monoxide (DLco) at Each Specified Time Points. DLco is a measurement of the ability of the lungs to transfer gases from the air to the blood. Change from baseline in diffusing capacity of the lung for carbon monoxide (percent predicted hemoglobin level corrected) was reported for this measure. Baseline value was defined as valid and last non-missing value obtained within 28 days prior to participant receiving first study medication. EOT visit was performed within 3 days after the participant's last dose of study drug. […] Analysis was performed on mITT population. Here, ‘number analyzed’=participants with available data for each specified category. Here, ‘O’ in the number analyzed field signifies that none of the participants were available for the analysis at the specified time points.

[3] = test system: lung function; assay: Example 1: percent predicted FVC change from baseline; settings: mean (SD)
Experimental: Change From Baseline in Percent Predicted Forced Vital Capacity (FVC) at Each Specified Time Points. FVC was the total amount of air (in liters) exhaled from the lungs during the lung function test measured by spirometer which assessed the change in lung function related to the disease status. Baseline value was defined as valid and last non-missing value obtained within 28 days prior to participant receiving first study medication. EOT visit was performed within 3 days after the participant's last dose of study drug. […] Analysis was performed on mITT population. Here, ‘number analyzed’=participants with available data for each specified category. Here, ‘0’ in the number analyzed field signifies that none of the participants were available for the analysis at the specified time points.

[4] = test system: lung function; assay: Example 1: percent predicted FEV1 change from baseline
Experimental: Change From Baseline in Percent Predicted Forced Expiratory Volume in 1 Second (FEV1) at Each Specified Time Points. FEV1 was the volume of air exhaled from the lungs in the first second of a forced expiration as measured by spirometer. Baseline value was defined as valid and last non-missing value obtained within 28 days prior to participant receiving first study medication. EOT visit was performed within 3 days after the participant's last dose of study drug. […] Analysis was performed on mITT population. Here, ‘number analyzed’=participants with available data for each specified category. Here, ‘O’ in the number analyzed field signifies that none of the participants were available for the analysis at the specified time points.

[5] = Cohort 1: 200 mg QD, Cycle 47, Day 1
[6] = Cohort 3: 400 mg QD, Cycle 43, Day 1

## CC(C)NC(=O)COc1cccc(-c2nc(Nc3ccc4[nH]ncc4c3)c3ccccc3n2)c1 [Belumosudil, 2-{3-[4-(1H-indazol-5-ylamino)-2-quinazolinyl]phenoxy}-N-(propan-2-yl) acetamide]
[1]; Cycle 20, Day 1
  Change From Baseline in Overall Score on Lee cGvHD Symptom Scale, Mean (Standard Deviation): −2.8 (5.6) score on a scale
[1]; Cycle 21, Day 1
  Change From Baseline in Overall Score on Lee cGvHD Symptom Scale, Mean (Standard Deviation): −4.0 (7.9) score on a scale
[1]; Cycle 22, Day 1
  Change From Baseline in Overall Score on Lee cGvHD Symptom Scale, Mean (Standard Deviation): −3.6 (5.0) score on a scale
[1]; Cycle 23, Day 1
  Change From Baseline in Overall Score on Lee cGvHD Symptom Scale, Mean (Standard Deviation): −6.2 (7.7) score on a scale
[1]; Cycle 24, Day 1
  Change From Baseline in Overall Score on Lee cGvHD Symptom Scale, Mean (Standard Deviation): −5.6 (5.7) score on a scale
[1]; Cycle 25, Day 1
  Change From Baseline in Overall Score on Lee cGvHD Symptom Scale, Mean (Standard Deviation): −8.4 (3.4) score on a scale
[1]; Cycle 26, Day 1
  Change From Baseline in Overall Score on Lee cGvHD Symptom Scale, Mean (Standard Deviation): 0.2 (—) score on a scale
[2]; [5]
  Change From Baseline in Percent Predicted Hemoglobin (HGB) Corrected Diffusing Capacity of Lung for Carbon Monoxide (DLco): 9.660 (—) Percent Predicted HGB Corrected DLco
[2]; [6]
  Change From Baseline in Percent Predicted Hemoglobin (HGB) Corrected Diffusing Capacity of Lung for Carbon Monoxide (DLco): 16.351 (—) Percent Predicted HGB Corrected DLco
[3]; Cohort 1: 200 mg QD, Cycle 37, Day 1
  Change From Baseline in Percent Predicted Forced Vital Capacity (FVC): 7.0 (—) percent predicted FVC
[3]; Cohort 1: 200 mg QD, Cycle 38, Day 1
  Change From Baseline in Percent Predicted Forced Vital Capacity (FVC): 2.0 (—) percent predicted FVC
[3]; Cohort 1: 200 mg QD, Cycle 39, Day 1
  Change From Baseline in Percent Predicted Forced Vital Capacity (FVC): 12.5 (0.7) percent predicted FVC
[3]; Cohort 1: 200 mg QD, Cycle 40, Day 1
  Change From Baseline in Percent Predicted Forced Vital Capacity (FVC): 3.0 (—) percent predicted FVC
[3]; Cohort 1: 200 mg QD, Cycle 41, Day 1
  Change From Baseline in Percent Predicted Forced Vital Capacity (FVC): 15.0 (—) percent predicted FVC
[3]; Cohort 1: 200 mg QD, Cycle 43, Day 1
  Change From Baseline in Percent Predicted Forced Vital Capacity (FVC): 17.0 (—) percent predicted FVC
[3]; [5]
  Change From Baseline in Percent Predicted Forced Vital Capacity (FVC): 5.0 (—) percent predicted FVC
[3]; Cohort 2: 200 mg BID, Cycle 37, Day 1
  Change From Baseline in Percent Predicted Forced Vital Capacity (FVC): −24.0 (—) percent predicted FVC
[3]; Cohort 2: 200 mg BID, Cycle 39, Day 1
  Change From Baseline in Percent Predicted Forced Vital Capacity (FVC): −20.5 (12.0) percent predicted FVC
[3]; Cohort 2: 200 mg BID, Cycle 43, Day 1
  Change From Baseline in Percent Predicted Forced Vital Capacity (FVC): −18.0 (—) percent predicted FVC
[3]; Cohort 3: 400 mg QD, Cycle 39, Day 1
  Change From Baseline in Percent Predicted Forced Vital Capacity (FVC): −1.0 (—) percent predicted FVC
[3]; [6]
  Change From Baseline in Percent Predicted Forced Vital Capacity (FVC): −4.0 (—) percent predicted FVC
[3]; Cohort 3: 400 mg QD, Cycle 47, Day 1
  Change From Baseline in Percent Predicted Forced Vital Capacity (FVC): −2.0 (—) percent predicted FVC
[4]; Cohort 1: 200 mg QD, Cycle 21, Day 1
  Change From Baseline in Percent Predicted Forced Expiratory Volume in 1 Second (FEV1), Mean (Standard Deviation): −7.4 (10.6) percent predicted FEV1
[4]; Cohort 1: 200 mg QD, Cycle 23, Day 1
  Change From Baseline in Percent Predicted Forced Expiratory Volume in 1 Second (FEV1), Mean (Standard Deviation): −4.3 (14.6) percent predicted FEV1
[4]; Cohort 1: 200 mg QD, Cycle 24, Day 1
  Change From Baseline in Percent Predicted Forced Expiratory Volume in 1 Second (FEV1), Mean (Standard Deviation): 2.0 (—) percent predicted FEV1
[4]; Cohort 2: 200 mg BID, Cycle 20, Day 1
  Change From Baseline in Percent Predicted Forced Expiratory Volume in 1 Second (FEV1), Mean (Standard Deviation): −8.0 (7.1) percent predicted FEV1
[4]; Cohort 2: 200 mg BID, Cycle 21, Day 1
  Change From Baseline in Percent Predicted Forced Expiratory Volume in 1 Second (FEV1), Mean (Standard Deviation): 0.0 (—) percent predicted FEV1
[4]; Cohort 2: 200 mg BID, Cycle 22, Day 1
  Change From Baseline in Percent Predicted Forced Expiratory Volume in 1 Second (FEV1), Mean (Standard Deviation): −11.0 (1.4) percent predicted FEV1
[4]; Cohort 2: 200 mg BID, Cycle 23, Day 1
  Change From Baseline in Percent Predicted Forced Expiratory Volume in 1 Second (FEV1), Mean (Standard Deviation): −12.5 (4.9) percent predicted FEV1
[4]; Cohort 2: 200 mg BID, Cycle 24, Day 1
  Change From Baseline in Percent Predicted Forced Expiratory Volume in 1 Second (FEV1), Mean (Standard Deviation): −18.0 (—) percent predicted FEV1
[4]; Cohort 3: 400 mg QD, Cycle 20, Day 1
  Change From Baseline in Percent Predicted Forced Expiratory Volume in 1 Second (FEV1), Mean (Standard Deviation): 4.0 (10.4) percent predicted FEV1
[4]; Cohort 3: 400 mg QD, Cycle 21, Day 1
  Change From Baseline in Percent Predicted Forced Expiratory Volume in 1 Second (FEV1), Mean (Standard Deviation): −10.0 (19.8) percent predicted FEV1
[4]; Cohort 3: 400 mg QD, Cycle 22, Day 1
  Change From Baseline in Percent Predicted Forced Expiratory Volume in 1 Second (FEV1), Mean (Standard Deviation): −6.0 (17.0) percent predicted FEV1
[4]; Cohort 3: 400 mg QD, Cycle 23, Day 1
  Change From Baseline in Percent Predicted Forced Expiratory Volume in 1 Second (FEV1), Mean (Standard Deviation): −4.8 (11.2) percent predicted FEV1
[4]; Cohort 3: 400 mg QD, Cycle 24, Day 1
  Change From Baseline in Percent Predicted Forced Expiratory Volume in 1 Second (FEV1), Mean (Standard Deviation): −19.0 (—) percent predicted FEV1
